Binding data for three molecules are collected here from paper PMC3525516.

No constants are given. Whether binding was seen depends on the method and setting. Binding seen in cells or lysates may run through a third protein. A yes stands for co-enrichment or nearness to the bait. Other partners may have been found.

Sequences and labels used below:
T1: Huntingtin Yeast Two-Hybrid Protein K, recombinant 6HN-HYPK (UniProt Q9NX55)
T1 sequence: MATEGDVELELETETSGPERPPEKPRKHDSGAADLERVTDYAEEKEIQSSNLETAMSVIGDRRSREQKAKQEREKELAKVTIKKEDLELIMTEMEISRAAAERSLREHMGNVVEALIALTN

B1: Protein phosphatase 6, regulatory subunit 2 (protein, UniProt Q8R3Q2 1-923)
chain: MFWKFDLNTTSHVDKLLDKEHVTLQELMDEDDILQECKAQNQKLLDFLCRQQCMEELVNLITQDPPQDMEEKVRFKYPNTACELLTCDVPQISDRLGEDESLLNLLYDFLDQEPPLNPLLASFFSKTIGNLIARKTEQVIMFLKKKEKFISQLLKHIGTSALMDLLLRLVSCVEPVGLRQEVLHWLNEEKIIQRLVALIHPHQDEDRQSNASQALCDIIRLGRDQGSQLQETVEPDPLLITLESQDCVEQLLKNMFDGDQTESCLVSGMQVLLALLEPRRVGTEGLVDSFSQGLERSHSVSSSILRGIEPWLKNFHQLLLNPPKKKAILTTIGVLEEPLGNARLHGARLMAALLHTNTPGINQELCRLNTMDLLLDLFFKYTWNNFLHLQVELCIAAILSHAAREEQAEASGSDGKVEPLQGSGDGNGKLETTPSITSPPENTMVTHLFQKCCLVQRILEAWEANDHTQAAGGMRRGNMGHLTRIANAVVQNLEQGPVQAHISEVIRGLPADCRGRWESFVEETLMETNRRNTVDLAFSEYQIQQMTANFVDQFGFNDEEFADQDDNINAPFDRIAEINFNIEADEDSPSAALFEACCSDRIQPFDDDEEEDIWEDDETRCAARVMARARFGAPHVSDNYSKNALEHGGQDRKTGSAVARNVPGLAAPSSPTQKEGPRSESDSAGTTWTAVFDEPVNPLSATPGAARDVGSSAWAAGPSVVEEKGWAKFTDFQPFCCSETGPRCSSPVDMDHSNAEGGQSPGPEKTFGPTSPCAWNVCVTRKAPLVASDSSSSGGSDSEDDEKAAGAVEAVCTGHTGKVSPPPRTAEAAVGRAECPDSTVLAPACPAPSEVTISPAVATIAPSKAGSPTATIVVSSSVAAAVPPGPIVAVTTAAPAIVATLGTMTKDRKADALPEGAALNGPV
B2: Serologically defined colon cancer antigen 1 (protein, UniProt O60524 1-1076)
chain: MKSRFSTIDLRAVLAELNASLLGMRVNNVYDVDNKTYLIRLQKPDFKATLLLESGIRIHTTEFEWPKNMMPSSFAMKCRKHLKSRRLVSAKQLGVDRIVDFQFGSDEAAYHLIIELYDRGNIVLTDYEYVILNILRFRTDEADDVKFAVRERYPLDHARAAEPLLTLERLTEIVASAPKGELLKRVLNPLLPYGPALIEHCLLENGFSGNVKVDEKLETKDIEKVLVSLQKAEDYMKTTSNFSGKGYIIQKREIKPSLEADKPVEDILTYEEFHPFLFSQHSQCPYIEFESFDKAVDEFYSKIEGQKIDLKALQQEKQALKKLDNVRKDHENRLEALQQAQEIDKLKGELIEMNLQIVDRAIQVVRSALANQIDWTEIGLIVKEAQAQGDPVASAIKELKLQTNHVTMLLRNPYLLSEEEDDDVDGDVNVEKNETEPPKGKKKKQKNKQLQKPQKNKPLLVDVDLSLSAYANAKKYYDHKRYAAKKTQKTVEAAEKAFKSAEKKTKQTLKEVQTVTSIQKARKVYWFEKFLWFISSENYLIIGGRDQQQNEIIVKRYLTPGDIYVHADLHGATSCVIKNPTGEPIPPRTLTEAGTMALCYSAAWDARVITSAWWVYHHQVSKTAPTGEYLTTGSFMIRGKKNFLPPSYLMMGFSFLFKVDESCVWRHQGERKVRVQDEDMETLASCTSELISEEMEQLDGGDTSSDEDKEEHETPVEVELMTQVDQEDITLQSGRDELNEELIQEESSEDEGEYEEVRKDQDSVGEMKDEGEETLNYPDTTIDLSHLQPQRSIQKLASKEESSNSSDSKSQSRRHLSAKERREMKKKKLPSDSGDLEALEGKDKEKESTVHIETHQNTSKNVAAVQPMKRGQKSKMKKMKEKYKDQDEEDRELIMKLLGSAGSNKEEKGKKGKKGKTKDEPVKKQPQKPRGGQRVSDNIKKETPFLEVITHELQDFAVDDPHDDKEEQDLDQQGNEENLFDSLTGQPHPEDVLLFAIPICAPYTTMTNYKYKVKLTPGVQKKGKAAKTALNSFMHSKEATAREKDLFRSVKDTDLSRNIPGKVKVSAPNLLNVKRK
B3: Lamin B2 (HeLa) (protein, UniProt Q03252 1-620)
chain: MSPPSPGRRREQRRPRAAATMATPLPGRAGGPATPLSPTRLSRLQEKEELRELNDRLAHYIDRVRALELENDRLLLKISEKEEVTTREVSGIKALYESELADARRVLDETARERARLQIEIGKLRAELDEVNKSAKKREGELTVAQGRVKDLESLFHRSEVELAAALSDKRGLESDVAELRAQLAKAEDGHAVAKKQLEKETLMRVDLENRCQSLQEELDFRKSVFEEEVRETRRRHERRLVEVDSSRQQEYDFKMAQALEELRSQHDEQVRLYKLELEQTYQAKLDSAKLSSDQNDKAASAAREELKEARMRLESLSYQLSGLQKQASAAEDRIRELEEAMAGERDKFRKMLDAKEQEMTEMRDVMQQQLAEYQELLDVKLALDMEINAYRKLLEGEEERLKLSPSPSSRVTVSRATSSSSGSLSATGRLGRSKRKRLEVEEPLGSGPSVLGTGTGGSGGFHLAQQASASGSVSIEEIDLEGKFVQLKNNSDKDQSLGNWRIKRQVLEGEEIAYKFTPKYILRAGQMVTVWAAGAGVAHSPPSTLVWKGQSSWGTGESFRTVLVNADGEEVAMRTVKKSSVMRENENGEEEEEEAEFGEEDLFHQQGDPRTTSRGCYVM

The target in the assay is T1, Huntingtin Yeast Two-Hybrid Protein K, recombinant 6HN-HYPK. The assay can be described thus: affinity purification with mass spectrometry; 200 µg purified 6HN-HYPK bound to a Ni-NTA column as bait; ~800 µg soluble cell lysate (HeLa, Neuro2A, STHdhQ7/HdhQ7 or STHdhQ111/HdhQ111) as prey overnight; washed with 50 mM Tris pH 8.0, 150 mM NaCl, 1.0% NP-40; eluted with 300 mM imidazole; 1D or 2D SDS-PAGE, unique bands or spots by MALDI-TOF/TOF; only the target purified.
In the case of B1, the binding entry is reported as “binds”. Regarding B2, the binding result is “binds”. The same measure for B3: “binds”.
